Assay results from the supplement of paper PMC4862054.
Most values lie at the level of the controls, where differences are scatter.

Legend:
Experiment in all cases: normalised response (% of control), CellTox Green; higher = less cell death (100 = DMSO, 0 = benzethonium chloride kill control)
Settings in all cases: incubation time: 72 h
[1] = tested on: BT-474
Protocol: (§1)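 DSRT, 72 h incubation, CellTox Green / CellTiter-Glo readout. Signal is normalised to DMSO and benzethonium chloride controls. Value is the normalised response at the lowest tested concentration.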

[2] = tested on: BT-549
Protocol: as §1

[3] = tested on: CAL-120
Protocol: as §1

[4] = tested on: CAL-148
Protocol: as §1

[5] = tested on: CAL-51
Protocol: as §1

[6] = tested on: CAL-85-1
Protocol: as §1

[7] = tested on: DU-4475
Protocol: as §1

[8] = tested on: HCC1143
Protocol: as §1

[9] = tested on: HCC1599
Protocol: as §1

[10] = tested on: HDQ-P1
Protocol: as §1

[11] = tested on: Hs578T
Protocol: as §1

[12] = tested on: MCF-10A
Protocol: as §1

[13] = tested on: MDA-MB-231
Protocol: as §1

[14] = tested on: MDA-MB-436
Protocol: as §1

[15] = tested on: MDA-MB-453
Protocol: as §1

[16] = tested on: MDA-MB-468
Protocol: as §1

[17] = tested on: MFM-223
Protocol: as §1

[18] = tested on: BT-474; remark: listed apart in the source
Protocol: (§2)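 DSRT, 72 h incubation, CellTox Green / CellTiter-Glo readout. Signal is normalised to DMSO and benzethonium chloride controls. Value is the normalised response at dose 2.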

[19] = tested on: BT-549; remark: listed apart in the source
Protocol: as §2

[20] = tested on: CAL-120; remark: listed apart in the source
Protocol: as §2

[21] = tested on: CAL-148; remark: listed apart in the source
Protocol: as §2

[22] = tested on: CAL-51; remark: listed apart in the source
Protocol: as §2

[23] = tested on: CAL-85-1; remark: listed apart in the source
Protocol: as §2

[24] = tested on: DU-4475; remark: listed apart in the source
Protocol: as §2

[25] = tested on: HCC1143; remark: listed apart in the source
Protocol: as §2

[26] = tested on: HCC1599; remark: listed apart in the source
Protocol: as §2

[27] = tested on: HDQ-P1; remark: listed apart in the source
Protocol: as §2

[28] = tested on: Hs578T; remark: listed apart in the source
Protocol: as §2

[29] = tested on: MCF-10A; remark: listed apart in the source
Protocol: as §2

[30] = tested on: MDA-MB-231; remark: listed apart in the source
Protocol: as §2

[31] = tested on: MDA-MB-436; remark: listed apart in the source
Protocol: as §2

[32] = tested on: MDA-MB-453; remark: listed apart in the source
Protocol: as §2

[33] = tested on: MFM-223; remark: listed apart in the source
Protocol: as §2

[34] = tested on: MDA-MB-468; remark: listed apart in the source
Protocol: as §2

Row | Structure (SMILES) | normalised response [1] | normalised response [2] | normalised response [3] | normalised response [4] | normalised response [5] | normalised response [6] | normalised response [7] | normalised response [8] | normalised response [9] | normalised response [10] | normalised response [11] | normalised response [12] | normalised response [13] | normalised response [14] | normalised response [15] | normalised response [16] | normalised response [17] | normalised response [18] | normalised response [19] | normalised response [20] | normalised response [21] | normalised response [22] | normalised response [23] | normalised response [24] | normalised response [25] | normalised response [26] | normalised response [27] | normalised response [28] | normalised response [29] | normalised response [30] | normalised response [31] | normalised response [32] | normalised response [33] | normalised response [34]
1 | COc1ccc(S(=O)(=O)Nc2cccnc2Nc2ccc(O)cc2)cc1 [ABT-751] (1 nM) | 99.5% | 109% | 96.7% | 104% | 126% | 99.5% | 97.9% | 104% | 101% | 98.8% | 63.5% | 83.3% | 102% | 86.4% | 106% | 114% | 94.3% | – | – | – | – | – | – | – | – | – | – | – | – | – | – | – | – | –
2 | CN[C@@H]1C[C@H]2O[C@@](C)([C@@H]1OC)n1c3ccccc3c3c4c(c5c6ccccc6n2c5c31)C(=O)N[C@H]4O [UCN-01] (1 nM) | 103% | 97.6% | 97.2% | 103% | 105% | 97.5% | 99.8% | 122% | 103% | 81.8% | 72.2% | 104% | 87.5% | 89% | 108% | 94.1% | 101% | – | – | – | – | – | – | – | – | – | – | – | – | – | – | – | – | –
3 | CN(C)CCN1C(=O)c2cccc3cc(N)cc(c23)C1=O [Amonafide] (1 nM) | 101% | 99% | 91.7% | 104% | 134% | 106% | 94.9% | 110% | 95.7% | 90.7% | 107% | 104% | 82.5% | 88.5% | 108% | 105% | 102% | – | – | – | – | – | – | – | – | – | – | – | – | – | – | – | – | –
4 | C#Cc1cccc(Nc2ncnc3cc(OC)c(OCCCCCCC(=O)NO)cc23)c1 [CUDC-101] (10 nM) | – | – | – | – | – | – | – | – | – | – | – | – | – | – | – | – | – | 97.6% | 113% | 106% | 101% | 70.1% | 89% | 112% | 115% | 114% | 118% | 52.2% | 113% | 104% | 109% | 94.2% | 103% | –
5 | Cn1c(CCCC(=O)O)nc2cc(N(CCCl)CCCl)ccc21 [Bendamustine] (10 nM) | – | – | – | – | – | – | – | – | – | – | – | – | – | – | – | – | – | 93.8% | 97.5% | 102% | 109% | 100% | 100% | 107% | 112% | 101% | 123% | 96% | – | 108% | 113% | 102% | 100% | 77.1%
6 | CC1=C(/C=C/C(C)=C/C=C/C(C)=C/C(=O)O)C(C)(C)CCC1 [Tretinoin] (1 nM) | 97.7% | 99.2% | 100% | 93.5% | 113% | 101% | 110% | 114% | 118% | 71.2% | 101% | 102% | 119% | 73.9% | 101% | 102% | 96.1% | – | – | – | – | – | – | – | – | – | – | – | – | – | – | – | – | –
7 | Nc1ccn([C@@H]2O[C@H](CO)[C@@H](O)C2(F)F)c(=O)n1 [Gemcitabine] (1 nM) | – | – | – | – | – | – | – | – | – | – | – | – | – | – | – | – | – | 99% | 63.1% | 93.6% | 105% | 78.2% | 107% | 96.6% | 112% | 93.1% | – | – | 94% | 97.3% | 83.8% | 96.9% | 84.1% | 95%
8 | COc1cccc2c1C(=O)c1c(O)c3c(c(O)c1C2=O)C[C@@](O)(C(=O)CO)C[C@@H]3O[C@H]1C[C@H](N)[C@H](O)[C@H](C)O1 [Doxorubicin] (1 nM) | – | – | – | – | – | – | – | – | – | – | – | – | – | – | – | – | – | 83.5% | 99% | 104% | 63.7% | 103% | 96.8% | 112% | 113% | 111% | 115% | 105% | 120% | 95.8% | 70.6% | 112% | 101% | 84.8%
